# Target: MC1 (Homo sapiens, UniProt Q01726)
# Chains of the proteins cited; added tags and fusions are not shown. Lines headed by an entry give the natural chain unless they say otherwise; changes in a name come on top.
# UniProt Q01726: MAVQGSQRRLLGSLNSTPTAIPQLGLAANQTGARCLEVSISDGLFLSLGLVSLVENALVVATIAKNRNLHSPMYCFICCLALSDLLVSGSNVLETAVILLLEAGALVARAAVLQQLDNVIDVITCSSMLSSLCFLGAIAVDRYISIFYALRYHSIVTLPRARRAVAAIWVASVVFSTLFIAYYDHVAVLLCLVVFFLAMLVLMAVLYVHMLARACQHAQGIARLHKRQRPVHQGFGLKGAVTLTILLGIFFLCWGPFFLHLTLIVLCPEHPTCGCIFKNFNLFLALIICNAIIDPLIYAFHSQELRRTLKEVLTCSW
smiles,measurement,value
"CC(=O)N[C@@H](CS(=O)(=O)O)C(=O)N[C@@H](CCCNC(=N)N)C(=O)N[C@H]1CSSC[C@@H](C(N)=O)NC(=O)[C@H](Cc2c[nH]c3ccccc23)NC(=O)[C@H](CCCNC(=N)N)NC(=O)[C@@H](Cc2ccccc2)NC(=O)[C@H](Cc2c[nH]cn2)NC(=O)[C@H](C)NC1=O [Compound No. 2, Ac-Cya-Arg-cyclo[Cys-Ala-His-D-Phe-Arg-Trp-Cys]-NH2]",MC1/MC4 selectivity,10.70

# Source: patent US20070105759A1 (priority 2003, published 2007)
